## Library screening results

Amino acid sequences for entries named in this document (tags omitted).
UniProt E9BF75, entry or part of it: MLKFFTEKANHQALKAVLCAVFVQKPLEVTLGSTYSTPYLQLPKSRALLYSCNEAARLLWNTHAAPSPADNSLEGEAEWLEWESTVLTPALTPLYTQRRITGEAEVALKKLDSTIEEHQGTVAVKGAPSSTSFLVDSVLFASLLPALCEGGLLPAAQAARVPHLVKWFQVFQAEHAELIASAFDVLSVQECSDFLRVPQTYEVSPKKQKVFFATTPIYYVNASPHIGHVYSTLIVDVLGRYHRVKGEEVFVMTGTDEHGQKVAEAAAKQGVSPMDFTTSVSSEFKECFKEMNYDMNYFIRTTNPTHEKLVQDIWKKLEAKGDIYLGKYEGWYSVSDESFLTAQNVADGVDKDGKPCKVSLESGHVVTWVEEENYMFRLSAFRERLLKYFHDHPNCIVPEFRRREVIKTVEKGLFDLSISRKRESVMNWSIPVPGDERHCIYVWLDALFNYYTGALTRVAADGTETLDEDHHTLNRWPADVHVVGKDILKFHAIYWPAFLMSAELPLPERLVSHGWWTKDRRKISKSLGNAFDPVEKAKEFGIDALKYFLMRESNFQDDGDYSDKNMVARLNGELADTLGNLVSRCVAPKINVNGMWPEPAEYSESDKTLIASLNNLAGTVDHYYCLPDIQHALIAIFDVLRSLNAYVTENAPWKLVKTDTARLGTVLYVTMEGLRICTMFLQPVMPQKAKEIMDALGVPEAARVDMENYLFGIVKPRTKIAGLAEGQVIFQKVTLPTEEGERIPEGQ

Data taken from ChEMBL document CHEMBL3988442, “University of Dundee, Small-Polar-MMV Screening Library” (2021).

Mtb heat-shock: 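Assay on Mycobacterium tuberculosis, filed only as a heat shock assay from Cornell; the read-out is not stated. The concentration is filed as 10 mM, unlikely as a test dose, so the dose is not known. Direction is inferred from retests: higher values go with stronger inhibition. Size under these conditions: about 69,000 compounds, about 930 of them at 50% or above in at least one test.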
LdMetRS: 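Methionyl-tRNA synthetase (putative), Leishmania donovani (UniProt E9BF75). Primary screen of methionyl-tRNA synthetase; the read-out is not stated. The test concentration is not given. Values are per cent inhibition. Of about 68,000 compounds tested this way, about 24 (0.035%) reached 50% or more in at least one test.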
Mtb growth Cornell: 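Whole-cell assay for inhibitors of Mycobacterium tuberculosis growth, labelled Cornell in the record; the read-out is not stated. The concentration is filed as 10 mM, unlikely as a test dose, so the dose is not known. Higher means stronger inhibition (inferred from two other growth screens of the library). Size under these conditions: about 53,000 compounds, about 900 of them at 50% or above in at least one test.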

All values are in %.
How 0% and 100% were set is not recorded. Most values in the screen are low, and negative values occur.
The compounds are a random part of those screened.
A dash means the value is not listed here; it may have been measured.

structure	Mtb heat-shock	LdMetRS	Mtb growth Cornell
CCN1C(=O)C(c2ccccc2)CC12CCN(S(C)(=O)=O)CC2 (stereo unspecified)	-1.754%	4.444%	-
CCN1CCN(c2cncc(Cl)n2)CC1	-34.15%	10.28%	-3.529%
CN1C(=O)CCCC12CCCN(C(=O)c1ccoc1)C2 (stereo unspecified)	-6.257%	7.372%	-48.27%
COc1ccccc1CCN(C)C(C)c1nc(-c2cccnc2)no1 (stereo unspecified)	-28.3%	4.19%	-40.91%
COc1cccc2c(=O)n(Cc3cccnc3)cnc12	-12.1%	17.18%	2.38%
c1cc(-c2cnc(C3CCNCC3)cn2)n[nH]1	-35.36%	5.696%	-18.84%
O=C(NCC1CCCO1)c1coc(Cn2cnc3ccccc32)n1 (stereo unspecified)	-9.192%	11.87%	-5.824%
[H][C@@]12OCCN(Cc3nccs3)[C@@]1([H])CC[C@@H]2Oc1ccccn1	-33.44%	-	7.631%
Cc1ccc(CN2CC(O)CN(C(=O)OCC(C)C)CC2=O)cc1 (stereo unspecified)	52.29%	11.78%	-2.365%
COc1cc2c(cc1CNC(=O)Cc1cc(C)[nH]n1)OC(C)C2 (stereo unspecified)	0.1034%	5.645%	-
Cc1nc(O)cc(CN2CC=C(c3cnn(C(C)(C)C)c3)CC2)n1	-17.86%	4.57%	-3.808%
CC1=N[C@@]2(CC[C@@H]3CN(CC(=O)N(C)C)C[C@@H]32)C(=O)N1CC1CC1	-	13.54%	-
CC(=O)N1CCC(Oc2ccc(Cl)cc2C(=O)N2CCCO2)CC1	-4.305%	9.091%	0.2609%
Cc1ccc(S(=O)(=O)N2C[C@H](C3CC3)[C@@H](N)C2)cc1F	10.53%	15.84%	21.21%
O=C(O)C(F)(F)F.O=C(O)C(F)(F)F.[H][C@@]12CCCO[C@]1([H])[C@H](NC(=O)CC1CC1)CN(Cc1cccnc1)C2	-27.45%	-	16.02%
Cn1c(CN2CCOC[C@H]2c2nc(C(C)(C)C)co2)nc2ccccc21	-17%	15.04%	10.25%
NC(=O)C(NC(=O)COCCc1ccccc1)c1ccccc1F (stereo unspecified)	-19.41%	10.82%	10.05%
Cc1nsc(NCCNS(=O)(=O)c2ccccc2)n1	-4.682%	3.958%	22.52%
Cc1noc(C)c1C(=O)NCc1ccc(N2CCC(C)CC2)nc1	-11.72%	21.1%	3.795%
CN(Cc1ccncc1)C1COC2(CCN(Cc3ccccn3)CC2)C1.O=C(O)C(F)(F)F.O=C(O)C(F)(F)F.O=C(O)C(F)(F)F.O=C(O)C(F)(F)F (stereo unspecified)	-12.07%	-	24.4%
Cc1ncncc1C(=O)N1CCCC1c1c(C)nn(C)c1Cl (stereo unspecified)	-8.169%	11.97%	10.64%
CCOc1cccc(CNC(=O)c2cnn(CC)c2C(F)(F)F)c1	-10.1%	16.33%	26.1%
CS(=O)(=O)Nc1ccc(CNC(=O)CN2CCc3ccccc32)cc1	-40.82%	6.522%	-38.24%
CCN(CC1CCOC1)C(=O)c1ccc(N2CCOCC2)c(F)c1 (stereo unspecified)	-7.771%	9.218%	-8.56%
Cn1cccc1C(=O)N1CCN(Cc2ccncc2)c2ncccc2C1.O=C(O)C(F)(F)F.O=C(O)C(F)(F)F	-1.562%	-	11.89%
Cc1ccc(NC(=O)N(C)Cc2cnn(C)c2)c(C)c1	13.53%	13.8%	-
CC(=O)NC1CCN(C(=O)Nc2cccc(C(F)(F)F)c2)CC1	-24.2%	5.442%	20.69%
Cc1nccn1-c1cc(CNC(=O)COCC2CC2)ccn1	-22.53%	17.06%	3.367%
c1ccc2oc(CCCN3CCCCC3Cn3cncn3)nc2c1 (stereo unspecified)	-11.18%	16.67%	60.48%
COC(=O)NCC1CCC2(CCNCC2)O1.Cl (stereo unspecified)	-6.745%	-	-
N#Cc1cccc(NC(=O)CCn2nc(-c3cccs3)oc2=O)c1	-2.274%	12.57%	0.344%
Cc1nccn1-c1cc(CNC(=O)C(C)(C)C)ccn1	1.976%	9.36%	16.7%
CN(Cc1cccs1)C1CCC[C@@H]2CN(C(N)=O)C[C@H]12 (stereo partly specified)	-	6.884%	-
[H][C@]12CC[C@]([H])(CN(S(C)(=O)=O)C1)N(Cc1ccsc1)C2	18.67%	-	-20.07%
Cc1ccc(Nc2c(C#N)c(=O)n(C)c(=O)n2C)cc1F	15.53%	12.1%	-
Cc1ncc2c(n1)CN(CCOCC(F)(F)F)CC2	11.07%	22.87%	6.844%
COc1ccccc1S(=O)(=O)Nc1ccc2c(C(=O)O)c[nH]c2c1	-19.32%	5.263%	17.16%
CC(C)c1nnc(CN(C)C(c2ccccc2)c2ccc(F)cc2)o1 (stereo unspecified)	6.1%	12.32%	32.65%
Cc1cc2n(n1)CC(CNCc1ccc(-n3cccn3)cc1)CN2 (stereo unspecified)	14.02%	21.86%	-
CC(NCc1ccc(F)cc1)c1ccc2[nH]c(=O)[nH]c2c1 (stereo unspecified)	4.335%	18.33%	-11.9%
O=C(O)C(F)(F)F.[H][C@]12CCN(C(=O)c3ccncc3F)[C@@]1([H])CC[C@@H](COCC(C)C)O2	-34.7%	-	-
OCC1(O)CCCN(Cc2nnc(-c3ccccc3)o2)CC1 (stereo unspecified)	13.38%	14.36%	-
CCN(Cc1ccc2c(c1)OCCO2)C(=O)NCc1nc(C)cs1	4.366%	9.028%	-
CNC(=O)CN1CCOCC2(CCCN(Cc3ccsc3)C2)C1.O=C(O)C(F)(F)F.O=C(O)C(F)(F)F (stereo unspecified)	-10.69%	-	31.39%
[H][C@@]12CS(=O)(=O)C[C@]1([H])NCCN2C(=O)COc1cccnc1C	-2.223%	-	-22.12%
NC(=O)C1CN(C(=O)Nc2ccccc2SC(F)(F)F)CCO1 (stereo unspecified)	6.636%	13.02%	15.96%
CCN(Cc1cnn(C)c1)C(=O)c1cc2ccccc2c(=O)[nH]1	-6.134%	12.57%	-5.537%
Cc1cc(C(=O)N2C[C@@H]3COC[C@]3(COCc3cccnc3)C2)no1	-	18.63%	-
CN(C)c1nc(NCCc2ccccn2)ncc1F	-49.37%	15.46%	-23.33%
O=C1CC[C@H]2[C@H](CCN2c2ncc(F)cn2)N1c1ccccc1	-	18.7%	-
CCN(CC)C(=O)CCCNC(=O)c1csc(NC2CC2)n1	-1.337%	9.938%	-
NC(=O)CCC1CCCN(Cc2cnc(N3CCCCC3)nc2)C1 (stereo unspecified)	-18.87%	19.05%	20.9%
CC(C)(C)NC(=O)[C@@H]1CNC[C@]12Cc1ccccc1C(=O)N2	-3.325%	9.062%	5.126%
O=C(O)C(F)(F)F.O=C(O)C(F)(F)F.c1cnc(N2CCOC3(CCN(CC4CCCCC4)CC3)C2)nc1	13.11%	-	-
CCN(C(=O)c1cccc2c1OCO2)c1ccc(Br)cn1	-15.9%	10.8%	6.773%
Cc1cccc(N2CCC(NC(=O)CCCc3cccs3)CC2)n1	3.464%	11.33%	-0.32%
CCCN1CCc2nc(SCc3c(C)cc(C)cc3C)[nH]c(=O)c2C1	24.04%	10.07%	-22.28%
CNC(=O)CN(C)C1CCN(c2ccc(Cl)cc2)CC1	5.307%	11.34%	-
Cn1cccc1C(=O)N1CCC2(CCN2c2ncccn2)C1 (stereo unspecified)	-	15.3%	-
CC[C@@]1(O)CCN(C(=O)c2ccc(-n3cnnc3)cc2)C[C@H]1O	-20.26%	12.06%	3.577%
c1ccc(CN2CCO[C@H]3[C@H](OCCN4CCCC4)CC[C@@H]32)nc1	-	20.5%	-
CC(=O)N1CCC2(CCN(C(=O)c3ccc(Cl)c(C(F)(F)F)c3)CC2)C1	-8.253%	17.6%	17.78%
COc1cc(N2CCC3(CCN(Cc4csc(C)n4)C3=O)C2)ncn1 (stereo unspecified)	-	11.95%	-
Cc1nc(-c2ccc(S(=O)(=O)N3CCC=C(F)C3)cc2)co1	-13.25%	10.65%	-
Cc1ccc(CNCCS(=O)(=O)N2CCOCC2)cc1C	4.042%	17.06%	24.92%